According to article PMC10957665, “The C-terminal selenenylsulfide of extracellular/non-reduced thioredoxin reductase endows this protein with selectivity to small-molecule electrophilic reagents under oxidative conditions” (Frontiers in Molecular Biosciences, 2024):
No constants are given. Whether binding was seen depends on the method and setting. For part of these data: Binding calls can cover weak binding; strength is not graded here.

How the values were obtained:
Experiment in all cases: cross-linking; diamide-induced covalent (disulfide/selenenylsulfide) complex: TrxR1 or a TrxR1 mutant with a 2-fold concentration of hTrx1, or one protein alone, 10 mM diamide, 30 min at room temperature; non-reducing SDS-PAGE, Coomassie stain; both purified
[1] = biological target: double Cys189Ser/Sec498Cys mutant of TrxR1 (UniProt O89049)
[2] = biological target: double Cys296Ser/Sec498Cys mutant of TrxR1 (UniProt O89049)
[3] = biological target: double Cys458Ser/Sec498Cys mutant of TrxR1 (UniProt O89049)
[4] = biological target: double Cys497Ser/Sec498Ser mutant of TrxR1 (UniProt O89049)
[5] = biological target: single Sec498Cys mutant of TrxR1
[6] = biological target: single Sec498Ser mutant of TrxR1

- binding [1]: binds
- binding [2]: binds
- binding [3]: binds
- binding [4]: no binding
- binding [5]: binds
- binding [6]: binds
B1: human cytosolic thioredoxin (hTrx1) (natural protein, UniProt P10599 1-105, looked up)
chain: MVKQIESKTAFQEALDAAGDKLVVVDFSATWCGPCKMIKPFFHSLSEKYSNVIFLEVDVDDCQDVASECEVKCMPTFQFFKKGQKVGEFSGANKEKLEATINELV
notes: Human cytosolic thioredoxin (hTrx1); freshly DTT-treated, free thiol on surface Cys73; also called human cytosolic Trx; source: purified according to a previously described method (Zhai and Zhong, 2010); incubated with DTT and dialysed before use
